Data as given in PubChem BioAssay AID1508597 (Cure First, 2020)

Test: 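Survival screen with siRNA in ovarian cancer cells derived from patients, with or without rucaparib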 (primary screen)
Cell system: human ovarian carcinoma lines grown from tumours: OCI-P5x (papillary serous) and OCI-C5x (clear cell)
Knock-down reagent: siRNA pool against human genes, 1.25 pmol siRNA per well
Timing: 72 h or 96 h, depending on the cell culture
Treatment: rucaparib 20 µM (about IC30) or vehicle, present until read-out
Rucaparib or vehicle: Vehicle
Cell line: OCI-C5x (clear cell)
Read-out: 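ATP luminescence measured at 72 or 96 h according to the culture, then normalised and expressed as percent viability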
Direction: viability, normalised: higher = more viable cells remaining
Call rule: 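Active when normalised viability falls below 80 percent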
Meaning of the calls: active = viability under 80%; inactive = viability 80% or more
Shown is a random part of the about 2,100 reagents, in one setting of the screen. 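Calls flag viability under 80% in either arm, not effects specific to rucaparib; the reference for percent is not stated.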 Unmarked entries are inactive. A reagent listed more than once was tested more than once; the source does not tell the runs apart. Reagent sequences are not shown. Not stated in the record: the 100% reference.

gene symbol	technical replicate	viability, normalised (%)
CRAMP1 (cramped chromatin regulator 1)	1	37.7 (active)
CRAMP1 (cramped chromatin regulator 1)	2	29.1 (active)
CRAMP1 (cramped chromatin regulator 1)	3	41.2 (active)
PLCH2 (phospholipase C eta 2)	1	32.2 (active)
PLCH2 (phospholipase C eta 2)	2	45.8 (active)
PLCH2 (phospholipase C eta 2)	3	50.8 (active)
PDE4A (phosphodiesterase 4A)	1	40.3 (active)
PDE4A (phosphodiesterase 4A)	2	50 (active)
PDE4A (phosphodiesterase 4A)	3	48.3 (active)
RAB32 (RAB32, member RAS oncogene family)	1	63.5 (active)
RAB32 (RAB32, member RAS oncogene family)	2	72.3 (active)
RAB32 (RAB32, member RAS oncogene family)	3	50.2 (active)
STK17A (serine/threonine kinase 17a)	1	65.4 (active)
STK17A (serine/threonine kinase 17a)	2	57.3 (active)
STK17A (serine/threonine kinase 17a)	3	63 (active)
TESK1 (testis associated actin remodelling kinase 1)	1	55.3 (active)
TESK1 (testis associated actin remodelling kinase 1)	2	45.2 (active)
TESK1 (testis associated actin remodelling kinase 1)	3	44.6 (active)
IFI6 (interferon alpha inducible protein 6)	1	26.4 (active)
IFI6 (interferon alpha inducible protein 6)	2	32 (active)
IFI6 (interferon alpha inducible protein 6)	3	35.6 (active)
CDK7 (cyclin dependent kinase 7)	1	54.9 (active)
CDK7 (cyclin dependent kinase 7)	1	49.7 (active)
CDK7 (cyclin dependent kinase 7)	2	64.6 (active)
CDK7 (cyclin dependent kinase 7)	2	47.5 (active)
CDK7 (cyclin dependent kinase 7)	3	58.2 (active)
CDK7 (cyclin dependent kinase 7)	3	55.9 (active)
ELAC2 (elaC ribonuclease Z 2)	1	63.6 (active)
ELAC2 (elaC ribonuclease Z 2)	2	49.8 (active)
ELAC2 (elaC ribonuclease Z 2)	3	66.4 (active)
GDPD2 (glycerophosphodiester phosphodiesterase domain containing 2)	1	33.1 (active)
GDPD2 (glycerophosphodiester phosphodiesterase domain containing 2)	2	28.4 (active)
GDPD2 (glycerophosphodiester phosphodiesterase domain containing 2)	3	35.6 (active)
SET (SET nuclear proto-oncogene)	1	58.8 (active)
SET (SET nuclear proto-oncogene)	2	58.6 (active)
SET (SET nuclear proto-oncogene)	3	72 (active)
MAP3K11 (mitogen-activated protein kinase kinase kinase 11)	1	66.7 (active)
MAP3K11 (mitogen-activated protein kinase kinase kinase 11)	2	46 (active)
MAP3K11 (mitogen-activated protein kinase kinase kinase 11)	3	63.4 (active)
CLDN4 (claudin 4)	1	32 (active)
CLDN4 (claudin 4)	2	30.7 (active)
CLDN4 (claudin 4)	3	35.1 (active)
ZFYVE9 (zinc finger FYVE-type containing 9)	1	75.4 (active)
ZFYVE9 (zinc finger FYVE-type containing 9)	2	57 (active)
ZFYVE9 (zinc finger FYVE-type containing 9)	3	69 (active)
MAP3K9 (mitogen-activated protein kinase kinase kinase 9)	1	72.7 (active)
MAP3K9 (mitogen-activated protein kinase kinase kinase 9)	2	60 (active)
MAP3K9 (mitogen-activated protein kinase kinase kinase 9)	3	47.6 (active)
XRCC6 (X-ray repair cross complementing 6)	1	54.9 (active)
XRCC6 (X-ray repair cross complementing 6)	2	52.4 (active)
XRCC6 (X-ray repair cross complementing 6)	3	31.7 (active)
H4C6 (H4 clustered histone 6)	1	41.6 (active)
H4C6 (H4 clustered histone 6)	2	45.8 (active)
H4C6 (H4 clustered histone 6)	3	46.8 (active)
DLG3 (discs large MAGUK scaffold protein 3)	1	67 (active)
DLG3 (discs large MAGUK scaffold protein 3)	2	51.7 (active)
DLG3 (discs large MAGUK scaffold protein 3)	3	51.9 (active)
PRMT6 (protein arginine methyltransferase 6)	1	35 (active)
PRMT6 (protein arginine methyltransferase 6)	2	51.1 (active)
PRMT6 (protein arginine methyltransferase 6)	3	48.7 (active)
AKAP13 (A-kinase anchoring protein 13)	1	74.6 (active)
AKAP13 (A-kinase anchoring protein 13)	2	63.4 (active)
AKAP13 (A-kinase anchoring protein 13)	3	44.6 (active)
UHMK1 (U2AF homology motif kinase 1)	1	59.6 (active)
UHMK1 (U2AF homology motif kinase 1)	2	58.2 (active)
UHMK1 (U2AF homology motif kinase 1)	3	76.3 (active)
TOP3A (DNA topoisomerase III alpha)	1	63 (active)
TOP3A (DNA topoisomerase III alpha)	2	62.4 (active)
TOP3A (DNA topoisomerase III alpha)	3	73.6 (active)
ETF1 (eukaryotic translation termination factor 1)	1	32.6 (active)
ETF1 (eukaryotic translation termination factor 1)	2	38.5 (active)
ETF1 (eukaryotic translation termination factor 1)	3	33.6 (active)
TCF3 (transcription factor 3)	1	40.1 (active)
TCF3 (transcription factor 3)	2	47.1 (active)
TCF3 (transcription factor 3)	3	47.4 (active)

Looked up above:
Under “viability, normalised (%)”, RAB32 (RAB32, member RAS oncogene family), technical replicate 1 reads 63.5 (active)
Under “viability, normalised (%)”, AKAP13 (A-kinase anchoring protein 13), technical replicate 1 has 74.6 (active)
IFI6 (interferon alpha inducible protein 6), technical replicate 3, viability, normalised (%) = 35.6 (active)
DLG3 (discs large MAGUK scaffold protein 3), technical replicate 3, viability, normalised (%): 51.9 (active)
Entry of AKAP13 (A-kinase anchoring protein 13), technical replicate 2 in “viability, normalised (%)”: 63.4 (active)
For “viability, normalised (%)”, UHMK1 (U2AF homology motif kinase 1), technical replicate 2 has 58.2 (active)
